Source: article PMC10887216
No constants are given. Whether binding was seen depends on the method and setting.

Protein sequences, listed by entry. Tags and fused reporters are not part of them. Lines headed by an entry give the natural chain unless they say otherwise; changes in a name come on top. Residues count along the entry.
UniProt P02769, residues 25-607: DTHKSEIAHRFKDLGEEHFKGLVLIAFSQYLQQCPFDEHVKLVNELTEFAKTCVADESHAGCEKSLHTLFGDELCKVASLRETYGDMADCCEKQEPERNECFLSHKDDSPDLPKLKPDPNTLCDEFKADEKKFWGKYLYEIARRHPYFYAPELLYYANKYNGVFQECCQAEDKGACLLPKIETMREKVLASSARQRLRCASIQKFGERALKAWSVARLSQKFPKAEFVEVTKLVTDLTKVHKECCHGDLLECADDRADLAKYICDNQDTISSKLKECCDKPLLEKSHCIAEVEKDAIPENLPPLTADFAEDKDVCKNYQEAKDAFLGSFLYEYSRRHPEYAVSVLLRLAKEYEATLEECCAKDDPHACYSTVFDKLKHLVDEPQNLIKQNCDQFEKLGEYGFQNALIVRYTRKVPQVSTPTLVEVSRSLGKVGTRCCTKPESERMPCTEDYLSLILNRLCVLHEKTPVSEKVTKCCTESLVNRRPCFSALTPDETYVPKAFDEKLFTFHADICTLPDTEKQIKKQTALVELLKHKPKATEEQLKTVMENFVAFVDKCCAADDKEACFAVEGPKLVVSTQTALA
UniProt P06756: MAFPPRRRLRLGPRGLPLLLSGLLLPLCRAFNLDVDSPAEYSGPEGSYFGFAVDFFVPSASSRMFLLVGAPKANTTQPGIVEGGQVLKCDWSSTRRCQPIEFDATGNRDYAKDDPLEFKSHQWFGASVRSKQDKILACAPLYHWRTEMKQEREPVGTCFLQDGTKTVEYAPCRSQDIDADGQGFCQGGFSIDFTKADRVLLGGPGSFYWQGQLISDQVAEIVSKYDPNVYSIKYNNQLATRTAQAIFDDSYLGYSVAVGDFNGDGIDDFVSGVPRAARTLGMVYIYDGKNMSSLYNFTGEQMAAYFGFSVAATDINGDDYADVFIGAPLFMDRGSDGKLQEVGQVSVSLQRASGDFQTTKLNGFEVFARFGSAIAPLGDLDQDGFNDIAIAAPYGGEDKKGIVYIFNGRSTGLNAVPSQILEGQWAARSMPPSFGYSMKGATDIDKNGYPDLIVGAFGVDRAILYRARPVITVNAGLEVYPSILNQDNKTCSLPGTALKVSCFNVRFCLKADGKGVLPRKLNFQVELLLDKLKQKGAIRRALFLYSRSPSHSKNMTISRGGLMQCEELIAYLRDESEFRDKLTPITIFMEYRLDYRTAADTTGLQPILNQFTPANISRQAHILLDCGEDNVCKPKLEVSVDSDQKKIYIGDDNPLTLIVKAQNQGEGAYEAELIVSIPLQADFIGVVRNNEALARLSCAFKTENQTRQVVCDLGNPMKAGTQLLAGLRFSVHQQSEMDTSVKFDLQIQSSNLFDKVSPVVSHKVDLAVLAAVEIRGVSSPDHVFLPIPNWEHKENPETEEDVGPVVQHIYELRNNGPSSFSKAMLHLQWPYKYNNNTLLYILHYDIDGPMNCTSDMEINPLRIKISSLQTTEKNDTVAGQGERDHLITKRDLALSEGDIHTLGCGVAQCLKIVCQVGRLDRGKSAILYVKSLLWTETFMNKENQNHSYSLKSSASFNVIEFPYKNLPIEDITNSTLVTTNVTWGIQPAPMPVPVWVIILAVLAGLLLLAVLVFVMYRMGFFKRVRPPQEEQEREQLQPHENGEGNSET

Target: BSA (bovine serum albumin) (bovine) (UniProt P02769)
Test: ELISA; FGF9 (WT or mutant) or BSA alone coated on 96-well plates, blocked with heat-treated BSA; soluble αvβ3 (1 μg/mL) in Tyrode-HEPES buffer with 1 mM Mn2+, 1 h, room temperature; bound αvβ3 detected with anti-β3 (mAb AV10) and HRP anti-mouse IgG; both purified

## soluble integrin αvβ3 (extracellular domains) (from UniProt P06756 31-992; P05106 27-718) (receptor)
  binding: no binding (tested: 1 μg/mL)
